# PubChem BioAssay AID1224830 | NIAID, 2016
# Screen: 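Regulators of TLR4 signalling towards TNF-alpha in macrophage-like cells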 (primary screen)
# Cells: human THP-1 monocytic leukaemia cells, TNF dual-luciferase reporter clone, PMA-differentiated to macrophage-like cells
# Reagents: siRNA pool against human genes, 50 nM
# Duration: LPS for 4 h, given about 3 days after siRNA transfection
# Conditions: bacterial LPS (TLR4 ligand), 10 ng/ml
# Measurement: 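Ratio of firefly to renilla light, scaled to the plate median and expressed as a robust z-score per replicate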
# Direction: TNF reporter robust z-score: higher = stronger TNF reporter response to LPS
# Rule for the call: 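a well is active when its z-score exceeds 2.8 or falls below -1.5; control wells carry no call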
# Here is one part, drawn at random, of about 18,000 reagents tested. About 2,900 of all reagents (16%) count as active. 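Calls are made per well; low scores hint the gene aids the LPS response, high scores that it dampens it.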 Entries without a mark were called inactive. Repeated entries: four replicate wells of each siRNA pool.
Gene,TNF reporter robust z-score
POPDC2 (popeye domain cAMP effector 2),1.86
POPDC2 (popeye domain cAMP effector 2),0.51
POPDC2 (popeye domain cAMP effector 2),0.04
POPDC2 (popeye domain cAMP effector 2),-0.22
HSPA5 (heat shock protein family A (Hsp70) member 5),-1.43
HSPA5 (heat shock protein family A (Hsp70) member 5),-0.74
HSPA5 (heat shock protein family A (Hsp70) member 5),-1.58 (active)
HSPA5 (heat shock protein family A (Hsp70) member 5),-1.19
XPO6 (exportin 6),0.03
XPO6 (exportin 6),0.35
XPO6 (exportin 6),-0.15
XPO6 (exportin 6),0.33
SAT1 (spermidine/spermine N1-acetyltransferase 1),-0.76
SAT1 (spermidine/spermine N1-acetyltransferase 1),-0.19
SAT1 (spermidine/spermine N1-acetyltransferase 1),0.1
SAT1 (spermidine/spermine N1-acetyltransferase 1),0.5
MRPS2 (mitochondrial ribosomal protein S2),-0.23
MRPS2 (mitochondrial ribosomal protein S2),0.72
MRPS2 (mitochondrial ribosomal protein S2),-0.51
MRPS2 (mitochondrial ribosomal protein S2),0.76
LINC00207 (long independently transcribed non-coding RNA 207),0.65
LINC00207 (long independently transcribed non-coding RNA 207),-1.02
LINC00207 (long independently transcribed non-coding RNA 207),-0.81
LINC00207 (long independently transcribed non-coding RNA 207),-0.86
LINC00207 (long independently transcribed non-coding RNA 207),1.8
LINC00207 (long independently transcribed non-coding RNA 207),1.16
LINC00207 (long independently transcribed non-coding RNA 207),2.45
LINC00207 (long independently transcribed non-coding RNA 207),3.28 (active)
FAM228A (family with sequence similarity 228 member A),-0.21
FAM228A (family with sequence similarity 228 member A),-0.82
FAM228A (family with sequence similarity 228 member A),-1.55 (active)
FAM228A (family with sequence similarity 228 member A),-0.39
OR5I1 (olfactory receptor family 5 subfamily I member 1),0.18
OR5I1 (olfactory receptor family 5 subfamily I member 1),1
OR5I1 (olfactory receptor family 5 subfamily I member 1),1.98
OR5I1 (olfactory receptor family 5 subfamily I member 1),2.98 (active)
"PSMD11 (proteasome 26S subunit, non-ATPase 11)",-1.97 (active)
"PSMD11 (proteasome 26S subunit, non-ATPase 11)",-2.11 (active)
"PSMD11 (proteasome 26S subunit, non-ATPase 11)",-1.95 (active)
"PSMD11 (proteasome 26S subunit, non-ATPase 11)",-2.04 (active)
POLR2C (RNA polymerase II subunit C),-0.48
POLR2C (RNA polymerase II subunit C),-0.63
POLR2C (RNA polymerase II subunit C),-0.27
POLR2C (RNA polymerase II subunit C),-0.11

An excerpt from the list above, as a working copy:
Gene,TNF reporter robust z-score
LINC00207 (long independently transcribed non-coding RNA 207),-1.02
LINC00207 (long independently transcribed non-coding RNA 207),-0.81
LINC00207 (long independently transcribed non-coding RNA 207),-0.86
LINC00207 (long independently transcribed non-coding RNA 207),1.8
LINC00207 (long independently transcribed non-coding RNA 207),1.16
LINC00207 (long independently transcribed non-coding RNA 207),2.45
LINC00207 (long independently transcribed non-coding RNA 207),3.28 (active)
FAM228A (family with sequence similarity 228 member A),-0.21
FAM228A (family with sequence similarity 228 member A),-0.82
FAM228A (family with sequence similarity 228 member A),-1.55 (active)
FAM228A (family with sequence similarity 228 member A),-0.39

The results go on:
Gene,TNF reporter robust z-score
CYB5R1 (cytochrome b5 reductase 1),-1.6 (active)
CYB5R1 (cytochrome b5 reductase 1),-1.04
CYB5R1 (cytochrome b5 reductase 1),-1.45
CYB5R1 (cytochrome b5 reductase 1),-1.11
HOXC12 (homeobox C12),-0.08
HOXC12 (homeobox C12),0.67
HOXC12 (homeobox C12),0.97
HOXC12 (homeobox C12),0.05
ZNF263 (zinc finger protein 263),-0.98
ZNF263 (zinc finger protein 263),0.51
ZNF263 (zinc finger protein 263),-0.24
ZNF263 (zinc finger protein 263),-0.59
GEMIN7 (gem nuclear organelle associated protein 7),-0.59
GEMIN7 (gem nuclear organelle associated protein 7),-0.33
GEMIN7 (gem nuclear organelle associated protein 7),-0.95
GEMIN7 (gem nuclear organelle associated protein 7),-0.6
SPOP (speckle type BTB/POZ protein),-1.59 (active)
SPOP (speckle type BTB/POZ protein),-1.64 (active)
SPOP (speckle type BTB/POZ protein),-1.65 (active)
SPOP (speckle type BTB/POZ protein),-1.55 (active)
SFPQ (splicing factor proline and glutamine rich),-1.43
SFPQ (splicing factor proline and glutamine rich),-0.67
SFPQ (splicing factor proline and glutamine rich),-1.12
SFPQ (splicing factor proline and glutamine rich),-1.13
ALPK1 (alpha kinase 1),-1.05
ALPK1 (alpha kinase 1),-0.32
ALPK1 (alpha kinase 1),-0.3
ALPK1 (alpha kinase 1),1.16
CCK (cholecystokinin),-1.49
CCK (cholecystokinin),-0.55
CCK (cholecystokinin),-0.24
CCK (cholecystokinin),-0.39
